{
  "source": "paper PMC8250858",
  "about": "“A Systematic Study of the Stability, Safety, and Efficacy of the de novo Designed Antimicrobial Peptide PepD2 and Its Modified Derivatives Against Acinetobacter baumannii” (Frontiers in Microbiology, 2021)",
  "note": "Non-standard residues stand in square brackets, D forms with d. Residues, ends and D or L forms follow the SMILES beside them.",
  "data": [
    {"test_system": "HEK293 cells", "assay_type": "cell-based, human", "settings": "HEK293 vs A. baumannii", "protocol": "Cell viability assays were performed by using the CellTiter 96® AQueous Non-Radioactive Cell Proliferation Assay (Promega, United States), in which 3-(4,5-dimethylthiazol-2-yl)-5-(3-carboxymethoxyphenyl)-2-(4-sulfophenyl)-2H-tetrazolium salt (MTS) can be reduced to purple-colored formazan by intact cells. […] The test peptide was dissolved in water and filtered through a 0.2-μm filter. The peptide concentration was quantitated by the UV280 to make a 5,120 μg/mL stock solution and then serially diluted in serum-free DMEM. On the second day, the medium was replaced with 100 μL of serum-free DMEM containing different peptide concentrations and incubated for 1 or 24 h. Serum-free DMEM without peptide was used as a negative control and medium containing 1% Triton X-100 was used as a positive control. One milligram of MTS powder was dissolved in 0.5 mL of Dulbecco’s phosphate-buffered saline (DPBS). The MTS solution was mixed with one-twentieth of a phenazine methosulfate (PMS) solution ([…]). To each well, 20 μL of the MTS/PMS solution was added. After 3 h, the absorbance was measured with an Infinite M1000 pro (Tecan Austria GmbH, Austria) at a wavelength of 490 nm. Cell viability was calculated using the following equation. Cellviability=[(A-Ap)/(An-Ap)]×100% A is the UV490 of the peptide-treated sample An is the UV490 of the sample without peptide (negative control) Ap is the UV490 of the Triton-treated sample (positive control)", "values": [
      {"molecule": "CC(=O)N[C@@H](Cc1c[nH]c2ccccc12)C(=O)N[C@H](CCCCN)C(=O)N[C@H](CCCCN)C(=O)N[C@H](CC(C)C)C(=O)N[C@H](CCCCN)C(=O)N[C@H](CCCCN)C(=O)N[C@H](CC(C)C)C(=O)N[C@H](CC(C)C)C(=O)N[C@H](CCCCN)C(=O)N[C@H](CCCCN)C(=O)N[C@H](CC(C)C)C(=O)N[C@H](CCCCN)C(=O)N[C@H](CCCCN)C(=O)N[C@H](CC(C)C)C(N)=O", "note": "[pepdD2, Ac-Wkklkkllkklkkl-NH2] (Ac-W[dK][dK][dL][dK][dK][dL][dL][dK][dK][dL][dK][dK][dL]-NH2)", "Selectivity index (SI) between HEK293 cells and A. baumannii": 2.6},
      {"molecule": "Ac-WKKLKKLLKKL-NH2 [pepD3]", "Selectivity index (SI) between HEK293 cells and A. baumannii": 8.5},
      {"molecule": "Ac-WKKLKKLLKKLKKL-NH2 [pepD2]", "Selectivity index (SI) between HEK293 cells and A. baumannii": 4.7}
    ]}
  ]
}
